The chains behind the UniProt entries cited, without tags or fusion partners. Where a name states a change or a piece, a line headed by the entry shows the natural chain unless it says otherwise. A line that says so, or that is headed by a name, gives the form on record, which may keep a tag or linker.
UniProt Q24572: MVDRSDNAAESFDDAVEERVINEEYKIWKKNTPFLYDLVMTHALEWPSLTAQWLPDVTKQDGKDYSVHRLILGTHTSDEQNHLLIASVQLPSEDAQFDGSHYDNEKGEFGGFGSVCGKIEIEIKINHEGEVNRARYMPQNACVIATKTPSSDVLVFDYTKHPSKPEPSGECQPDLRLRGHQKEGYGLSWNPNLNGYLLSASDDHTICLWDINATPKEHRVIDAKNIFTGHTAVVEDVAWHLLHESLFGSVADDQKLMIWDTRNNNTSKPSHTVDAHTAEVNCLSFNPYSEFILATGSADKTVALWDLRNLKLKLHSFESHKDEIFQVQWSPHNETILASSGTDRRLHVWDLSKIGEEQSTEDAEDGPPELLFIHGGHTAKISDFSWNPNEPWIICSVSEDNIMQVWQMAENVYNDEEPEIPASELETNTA
protein A-tagged Nurf55mut (Q24572, form named): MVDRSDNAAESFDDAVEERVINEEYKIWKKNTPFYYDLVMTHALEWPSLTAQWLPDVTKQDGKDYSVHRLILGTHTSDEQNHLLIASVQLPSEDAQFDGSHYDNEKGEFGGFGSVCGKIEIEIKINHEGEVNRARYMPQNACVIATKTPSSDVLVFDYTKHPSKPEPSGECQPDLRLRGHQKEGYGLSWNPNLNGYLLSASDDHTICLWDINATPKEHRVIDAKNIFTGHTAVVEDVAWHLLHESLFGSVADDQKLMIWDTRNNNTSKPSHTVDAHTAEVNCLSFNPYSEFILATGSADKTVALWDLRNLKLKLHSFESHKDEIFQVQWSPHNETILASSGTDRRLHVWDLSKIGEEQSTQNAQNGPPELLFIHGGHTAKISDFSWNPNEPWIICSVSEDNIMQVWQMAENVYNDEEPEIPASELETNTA
UniProt O97159: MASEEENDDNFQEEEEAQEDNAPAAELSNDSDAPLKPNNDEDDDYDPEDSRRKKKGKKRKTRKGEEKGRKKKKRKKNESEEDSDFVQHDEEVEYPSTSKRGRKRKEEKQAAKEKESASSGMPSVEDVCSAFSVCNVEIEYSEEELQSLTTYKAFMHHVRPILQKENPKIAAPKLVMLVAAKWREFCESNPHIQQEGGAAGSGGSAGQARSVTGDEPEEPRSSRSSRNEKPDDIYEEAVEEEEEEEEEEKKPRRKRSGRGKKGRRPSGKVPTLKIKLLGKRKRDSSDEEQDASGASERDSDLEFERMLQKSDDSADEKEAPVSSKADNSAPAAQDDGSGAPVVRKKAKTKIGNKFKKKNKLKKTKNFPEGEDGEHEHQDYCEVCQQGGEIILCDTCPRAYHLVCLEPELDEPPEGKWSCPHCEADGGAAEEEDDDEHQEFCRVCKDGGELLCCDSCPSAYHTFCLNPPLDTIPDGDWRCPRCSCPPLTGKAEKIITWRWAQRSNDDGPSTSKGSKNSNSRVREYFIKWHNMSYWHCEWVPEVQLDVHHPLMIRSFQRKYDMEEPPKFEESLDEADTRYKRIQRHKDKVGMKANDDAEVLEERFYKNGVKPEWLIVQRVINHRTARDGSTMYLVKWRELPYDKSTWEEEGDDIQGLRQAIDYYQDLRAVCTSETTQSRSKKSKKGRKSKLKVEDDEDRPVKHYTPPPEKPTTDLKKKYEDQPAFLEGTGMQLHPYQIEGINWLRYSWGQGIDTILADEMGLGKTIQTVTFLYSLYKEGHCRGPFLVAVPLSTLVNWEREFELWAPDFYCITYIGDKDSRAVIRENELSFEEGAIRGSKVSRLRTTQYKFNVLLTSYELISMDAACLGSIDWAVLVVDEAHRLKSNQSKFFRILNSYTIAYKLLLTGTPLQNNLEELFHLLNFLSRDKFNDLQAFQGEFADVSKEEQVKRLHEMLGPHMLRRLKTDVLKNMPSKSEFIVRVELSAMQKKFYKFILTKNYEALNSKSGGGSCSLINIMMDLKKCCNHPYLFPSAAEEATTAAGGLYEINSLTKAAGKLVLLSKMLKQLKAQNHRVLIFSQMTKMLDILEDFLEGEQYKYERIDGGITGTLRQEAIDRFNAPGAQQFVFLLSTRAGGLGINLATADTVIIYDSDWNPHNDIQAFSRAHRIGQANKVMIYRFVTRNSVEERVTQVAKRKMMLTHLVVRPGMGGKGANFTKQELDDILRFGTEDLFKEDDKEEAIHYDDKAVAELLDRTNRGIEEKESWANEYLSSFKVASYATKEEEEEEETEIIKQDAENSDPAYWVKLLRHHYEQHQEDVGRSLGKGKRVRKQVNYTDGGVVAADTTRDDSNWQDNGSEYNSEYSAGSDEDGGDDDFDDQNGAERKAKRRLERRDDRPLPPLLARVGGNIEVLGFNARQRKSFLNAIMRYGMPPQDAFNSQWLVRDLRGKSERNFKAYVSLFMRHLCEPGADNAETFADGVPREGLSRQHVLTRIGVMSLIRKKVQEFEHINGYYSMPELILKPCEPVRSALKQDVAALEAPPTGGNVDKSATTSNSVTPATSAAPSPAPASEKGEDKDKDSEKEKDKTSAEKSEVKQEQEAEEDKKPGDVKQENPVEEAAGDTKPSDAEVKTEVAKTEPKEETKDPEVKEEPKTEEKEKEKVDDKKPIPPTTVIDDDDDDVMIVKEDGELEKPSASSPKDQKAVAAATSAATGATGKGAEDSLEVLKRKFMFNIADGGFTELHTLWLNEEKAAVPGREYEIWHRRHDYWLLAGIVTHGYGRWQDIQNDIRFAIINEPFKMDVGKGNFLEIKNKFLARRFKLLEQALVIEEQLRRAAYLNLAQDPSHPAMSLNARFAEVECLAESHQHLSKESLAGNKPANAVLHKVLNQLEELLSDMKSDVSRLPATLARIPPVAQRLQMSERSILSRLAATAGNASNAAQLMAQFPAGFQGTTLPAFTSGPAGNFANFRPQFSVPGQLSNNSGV
UniProt Q94517: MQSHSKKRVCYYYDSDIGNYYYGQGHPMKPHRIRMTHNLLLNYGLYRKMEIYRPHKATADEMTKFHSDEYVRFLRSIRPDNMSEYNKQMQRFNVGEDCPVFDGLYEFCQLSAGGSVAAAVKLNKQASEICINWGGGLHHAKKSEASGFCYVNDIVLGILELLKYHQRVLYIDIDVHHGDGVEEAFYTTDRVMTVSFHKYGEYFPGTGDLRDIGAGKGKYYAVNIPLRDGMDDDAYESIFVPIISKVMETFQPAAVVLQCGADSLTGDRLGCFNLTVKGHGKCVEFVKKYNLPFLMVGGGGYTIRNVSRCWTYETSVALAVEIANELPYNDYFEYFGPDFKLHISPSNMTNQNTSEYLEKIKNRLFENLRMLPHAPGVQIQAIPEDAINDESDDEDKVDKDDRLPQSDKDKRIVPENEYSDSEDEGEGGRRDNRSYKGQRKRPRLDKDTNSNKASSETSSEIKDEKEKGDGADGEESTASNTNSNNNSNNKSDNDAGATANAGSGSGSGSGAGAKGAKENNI

In paper PMC4139204, “Insight into the Architecture of the NuRD Complex” (The Journal of Biological Chemistry, 2014):

Columns and labels:
[1] = target: protein A-tagged Nurf55mut (D. melanogaster) (UniProt Q24572); test: affinity purification with mass spectrometry; protein A-tagged Nurf55 or Nurf55mut stably expressed in Dmel-2 cells; purified on IgG beads; interactors identified by mass spectrometry
[2] = target: protein A-tagged wild-type Nurf55 (D. melanogaster) (UniProt Q24572); test: as above
[3] = target: GFP-tagged wild-type Nurf55 (D. melanogaster) (UniProt Q24572); test: affinity purification with mass spectrometry; GFP-tagged Nurf55 or Nurf55mut stably expressed in Dmel-2 cells; purified on beads with a covalently attached anti-GFP nanobody; mass spectrometry, in triplicate

Substance	binding [1]	binding [2]	binding [3]
Mi-2 (dCHD) (from UniProt O97159 1-1982)	no binding	binds	binds
Rpd3 (dHDAC) (from UniProt Q94517 1-521)	no binding	binds	binds

No constants are given. Whether binding was seen depends on the method and setting. Binding seen in cells or lysates may run through a third protein. Here binding means that the protein was enriched with, or labelled near, the bait; the list need not be complete. For part of these data: No binding means not detected with the bait.
